Measured values published in article PMC12795458.
These are yes or no findings as the source states them, for the method shown. Some results given as binding are weak or reduced against the parent protein; the word gives no strength. Sequences can lack the tags named with a protein.

Target: DnaN sliding clamp, Gal4 two-hybrid fusion (S. pneumoniae) (UniProt O06672)
Experiment: two-hybrid; Gal4-based PGAD-C1 and PGBD-C1 fusions; yeast PJ69-4a mated with PJ69-4α; growth of diploid cells after 8 or 20 days at 30°C on synthetic complete medium lacking leucine, uracil and histidine (HIS3 reporter); empty-vector controls

binding: binds
B1: DnaN sliding clamp, Gal4 two-hybrid fusion (protein, UniProt O06672 1-378)
chain: MIHFSINKNLFLQALNTTKRAISSKNAIPILSTVKIDVTNEGITLIGSNGQISIENFISQKNEDAGLLITSLGSILLEASFFINVVSSLPDVTLDFKEIEQNQIVLTSGKSEITLKGKDSEQYPRIQEISASTPLILETKLLKKIINETAFAASTQESRPILTGVHFVLSQHKELKTVATDSHRLSQKKLTLEKNSDDFDVVIPSRSLREFSAVFTDDIETVEIFFANNQILFRSENISFYTRLLEGNYPDTDRLIPTDFNTTITFNVVNLRQSMERARLLSSATQNGTVKLEIKDGVVSAHVHSPEVGKVNEEIDTDQVTGEDLTISFNPTYLIDSLKALNSEKVTISFISAVRPFTLVPADTDEDFMQLITPVRTN
